The exact form of at least one protein or probe is not confirmed. For some of these results: A weaker result is weaker than the reference pair of the same experiment. For some of these results: At least one verdict rests on a figure or table, not on a statement of the authors. For some of these results: Protein sequences can lack the tags named with them. For some of these results: At least one result comes from cells or an extract, where the contact may be indirect.
Key:
[1] = target: T1, VEZF1 (BGP1) (Gallus gallus (chicken)) (UniProt I6LDD9); assay: competition with a labelled probe; settings: 50-fold excess competitor, betaA probe, at least 7 G needed; EMSA buffer; competitors at 50-fold molar excess; protein translated in vitro; residues 1-555
T1 sequence (looked up): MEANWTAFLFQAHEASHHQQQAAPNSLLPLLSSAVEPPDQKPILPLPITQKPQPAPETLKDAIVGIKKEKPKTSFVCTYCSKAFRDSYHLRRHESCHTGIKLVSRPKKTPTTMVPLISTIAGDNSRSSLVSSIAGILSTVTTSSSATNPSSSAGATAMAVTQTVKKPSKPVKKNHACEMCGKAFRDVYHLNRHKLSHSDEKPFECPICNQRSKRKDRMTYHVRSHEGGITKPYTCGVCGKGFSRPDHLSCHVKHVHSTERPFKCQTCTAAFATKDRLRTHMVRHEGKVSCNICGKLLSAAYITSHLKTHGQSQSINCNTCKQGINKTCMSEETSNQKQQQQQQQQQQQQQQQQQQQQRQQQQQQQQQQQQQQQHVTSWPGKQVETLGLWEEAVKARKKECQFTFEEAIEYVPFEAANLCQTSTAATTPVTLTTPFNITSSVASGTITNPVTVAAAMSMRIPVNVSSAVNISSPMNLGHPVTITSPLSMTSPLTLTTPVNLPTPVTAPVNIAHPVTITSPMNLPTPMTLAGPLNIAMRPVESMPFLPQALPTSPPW

Chains of the proteins cited; added tags and fusions are not shown. Where a name states a change or a piece, a line headed by the entry shows the natural chain unless it says otherwise. Chains listed by the source or under a name are the forms on record and can include a tag or linker.
UniProt Q90WR8: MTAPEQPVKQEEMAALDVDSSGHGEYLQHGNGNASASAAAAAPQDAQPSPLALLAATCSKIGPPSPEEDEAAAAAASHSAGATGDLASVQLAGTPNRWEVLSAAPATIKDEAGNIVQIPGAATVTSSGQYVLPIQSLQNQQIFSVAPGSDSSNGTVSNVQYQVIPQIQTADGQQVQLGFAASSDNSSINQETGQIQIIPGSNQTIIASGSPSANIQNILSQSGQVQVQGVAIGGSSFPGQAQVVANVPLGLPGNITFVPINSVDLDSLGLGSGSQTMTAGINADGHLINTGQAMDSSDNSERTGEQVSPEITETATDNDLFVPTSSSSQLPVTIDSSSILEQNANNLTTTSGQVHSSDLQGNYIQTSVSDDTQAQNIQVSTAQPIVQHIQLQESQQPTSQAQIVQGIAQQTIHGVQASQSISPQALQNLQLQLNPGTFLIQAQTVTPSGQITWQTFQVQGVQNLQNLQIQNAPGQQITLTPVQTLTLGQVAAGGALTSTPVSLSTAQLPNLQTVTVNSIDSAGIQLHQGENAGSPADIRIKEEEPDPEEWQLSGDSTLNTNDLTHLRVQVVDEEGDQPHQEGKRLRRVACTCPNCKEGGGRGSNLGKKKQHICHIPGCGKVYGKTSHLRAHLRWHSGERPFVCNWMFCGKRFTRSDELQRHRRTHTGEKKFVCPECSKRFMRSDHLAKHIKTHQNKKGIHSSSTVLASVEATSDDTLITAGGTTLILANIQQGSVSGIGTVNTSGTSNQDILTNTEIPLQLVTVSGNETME
SP1, erythrocyte nuclear extract (Gallus gallus (chicken), adult erythrocytes), one chain, as listed by the source: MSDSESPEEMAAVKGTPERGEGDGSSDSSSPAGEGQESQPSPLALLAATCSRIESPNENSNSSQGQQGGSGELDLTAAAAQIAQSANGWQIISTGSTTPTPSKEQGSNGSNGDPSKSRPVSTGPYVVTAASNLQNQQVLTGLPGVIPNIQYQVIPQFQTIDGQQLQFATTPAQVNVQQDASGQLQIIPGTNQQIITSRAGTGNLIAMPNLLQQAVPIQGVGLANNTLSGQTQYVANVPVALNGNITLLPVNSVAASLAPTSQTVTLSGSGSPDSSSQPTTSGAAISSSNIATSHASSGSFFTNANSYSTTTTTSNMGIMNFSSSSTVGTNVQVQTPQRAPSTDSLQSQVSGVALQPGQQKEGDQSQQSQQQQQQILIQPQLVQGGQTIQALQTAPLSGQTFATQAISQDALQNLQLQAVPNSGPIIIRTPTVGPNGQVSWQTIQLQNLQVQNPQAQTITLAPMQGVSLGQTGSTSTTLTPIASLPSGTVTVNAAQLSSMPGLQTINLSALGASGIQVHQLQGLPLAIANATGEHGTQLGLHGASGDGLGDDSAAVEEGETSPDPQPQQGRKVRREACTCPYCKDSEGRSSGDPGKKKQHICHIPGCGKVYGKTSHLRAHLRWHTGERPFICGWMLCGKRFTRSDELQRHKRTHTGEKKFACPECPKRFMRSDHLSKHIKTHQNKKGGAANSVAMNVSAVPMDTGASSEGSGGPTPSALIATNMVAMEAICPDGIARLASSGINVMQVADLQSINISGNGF

[2] = system: SP1, erythrocyte nuclear extract (Gallus gallus (chicken), adult erythrocytes); assay: EMSA supershift; settings: EMSA buffer, competitors at 50-fold molar excess, protein in an extract, label: 32P (probe)
[3] = target: SP3, erythrocyte nuclear extract (Gallus gallus (chicken), adult erythrocytes) (UniProt Q90WR8); assay: EMSA supershift; settings: EMSA buffer, competitors at 50-fold molar excess, protein in an extract, label: 32P (probe)
[4] = target: T2, VEZF1 (BGP1), erythrocyte nuclear extract (Gallus gallus (chicken), adult erythrocytes) (UniProt I6LDD9); assay: EMSA supershift; settings: EMSA buffer, competitors at 50-fold molar excess, protein in an extract, label: 32P (probe)
T2 sequence (looked up, limits assumed): T1 sequence (looked up)

[5] = target: T2, VEZF1 (BGP1), erythrocyte nuclear extract (Gallus gallus (chicken), adult erythrocytes); assay: DNA affinity chromatography + MS/MS; settings: eluted at 400 mM KCl; protein in an extract
[6] = target: T3, ZF5, erythrocyte nuclear extract (Gallus gallus (chicken), adult erythrocytes) (UniProt Q92010); assay: DNA affinity chromatography + MS/MS; settings: eluted at 400 mM KCl; protein in an extract
T3 sequence (looked up, limits assumed): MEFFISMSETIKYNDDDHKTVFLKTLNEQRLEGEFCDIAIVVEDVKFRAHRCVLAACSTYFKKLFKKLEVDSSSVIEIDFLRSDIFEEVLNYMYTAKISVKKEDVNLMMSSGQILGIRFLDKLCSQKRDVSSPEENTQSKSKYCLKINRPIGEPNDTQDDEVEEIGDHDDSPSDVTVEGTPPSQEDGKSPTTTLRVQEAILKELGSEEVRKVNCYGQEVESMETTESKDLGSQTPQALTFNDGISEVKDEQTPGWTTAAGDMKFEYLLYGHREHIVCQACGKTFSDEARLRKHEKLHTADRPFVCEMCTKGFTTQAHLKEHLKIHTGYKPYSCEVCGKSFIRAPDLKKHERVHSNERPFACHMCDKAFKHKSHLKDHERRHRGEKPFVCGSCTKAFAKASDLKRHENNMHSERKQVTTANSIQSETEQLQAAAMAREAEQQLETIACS

[7] = system: SP1, erythrocyte nuclear extract (Gallus gallus (chicken), adult erythrocytes); assay: DNA affinity chromatography + MS/MS; settings: eluted at 400 mM KCl; protein in an extract
[8] = target: SP3, erythrocyte nuclear extract (Gallus gallus (chicken), adult erythrocytes) (UniProt Q90WR8); assay: DNA affinity chromatography + MS/MS; settings: eluted at 400 mM KCl; protein in an extract

## AATTGCAGAGCTGGGAATCGGGGGGCGGGTGGTGGTGTGG (double strand) [glo 6G]
[1]
  binding result: binds more weakly

## AATTGCAGAGCTGGGAATCGGGGGGGCGGGTGGTGGTGTGG (double strand) [glo 7G]
[1]
  binding result: binds

## AATTGCAGAGCTGGGAATCGGGGGGGGGGGGGGGGCGGGTGGTGGTGTGG (double strand) [glo wt (betaA-globin promoter, G16)]
[2]
  binding result: binds
[3]
  binding result: binds
[4]
  binding result: binds

## AGGCGCGCCCCGGTCCGGCGCTCCCCCCGCATCCCCGAGCCGGGGCGCGCCT (double strand) [HS4 FIII wt]
[4]; unlabelled as competitor
  binding result: binds

## CCTGCAGACACCTGGGGGGATACGGGGAAAAAGCTTTAGG (double strand) [HS4 FV wt]
[4]
  binding result: binds

## GATCGGTCCGGCGCTCCCCCCGCATCCCCGAGCCGGCA / GATCTGCCGGCTCGGGGATGCGGGGGGAGCGCCGGACC [FIII-DA affinity duplex]
[5]
  binding result: binds
[6]
  binding result: binds

## GATCTCACGGGGACAGCCCCCCCCCAAAGCCCCCA / GATCTGGGGGCTTTGGGGGGGGGCTGTCCCCGTGA [FI-DA affinity duplex]
[7]
  binding result: binds
[8]
  binding result: binds
[5]
  binding result: binds
[6]
  binding result: binds

## GGAGCTCACGGGGACAGCCCCCCCCCAAAGCCCCCAGGGA (double strand) [HS4 FI wt]
[2]; unlabelled as competitor
  binding result: binds
[3]; unlabelled as competitor
  binding result: binds
[4]; unlabelled as competitor
  binding result: binds
